PubChem BioAssay AID1259266 | Sanger Institute – 2017

- Aim: 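Search kinases and colorectal cancer genes for essential genes and drug synergy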 (primary screen)
- Cells: LS123 human colorectal cancer cells
- Knock-down reagent: siRNA pool against human genes
- Treatment: anchor drugs BYL719 (1 µM), cetuximab (5 µg/ml) or trametinib (10 nM), each chosen to barely slow growth alone; DMSO vehicle as the drug-free arm
- Detection: 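Viability relative to non-targeting control pools, replicate mean, with a robust z-score for knock-down alone and synergy scores for each anchor drug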
- Reading the numbers: robust z-score, knock-down alone: higher = more cells surviving after knock-down
- Call rule: 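Essential when the robust z-score of the knock-down alone is below -3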
- Meaning of the calls: active = essential (knock-down alone cuts viability); inactive = no change
The whole screen tested 794 reagents; shown is a part drawn at random. 16 of them (2%) were called active. 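Calls reflect knock-down alone, not drug synergy; viability seems capped at 1 and z-scores at 0.585.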 Unmarked entries are inactive. Not all columns of the deposit are shown. Not given: the amount of reagent, the time to read-out.

{"target": "AXL", "robust z-score, knock-down alone": 0.585}
{"target": "VRK1", "robust z-score, knock-down alone": 0.585}
{"target": "PDK1", "robust z-score, knock-down alone": -0.226}
{"target": "MAST3", "robust z-score, knock-down alone": -0.677}
{"target": "BTK", "robust z-score, knock-down alone": -0.514}
{"target": "TEC", "robust z-score, knock-down alone": 0.245}
{"target": "MAP3K20", "robust z-score, knock-down alone": 0.585}
{"target": "LCK", "robust z-score, knock-down alone": -0.207}
{"target": "NEK2", "robust z-score, knock-down alone": -0.884}
{"target": "MAGI1", "robust z-score, knock-down alone": 0.585}
{"target": "MSR1", "robust z-score, knock-down alone": -0.118}
{"target": "CAMKK2", "robust z-score, knock-down alone": 0.585}
{"target": "WNK3", "robust z-score, knock-down alone": 0.585}
{"target": "ADCK5", "robust z-score, knock-down alone": 0.499}
{"target": "MARK3", "robust z-score, knock-down alone": -1.39}
{"target": "GK2", "robust z-score, knock-down alone": 0.585}
{"target": "SRPK3", "robust z-score, knock-down alone": 0.585}
{"target": "PRPS2", "robust z-score, knock-down alone": -0.656}
{"target": "PLK1", "robust z-score, knock-down alone": "-3.4 (active)"}

A few values from the list.
For “robust z-score, knock-down alone”, PLK1 reads -3.4 (active)
Result for TEC in “robust z-score, knock-down alone”: 0.245
Under “robust z-score, knock-down alone”, MSR1 has -0.118
